Assay results: patent US6562115B2, “Azo dyes and their preparation and use” (Ilford Imaging Switzerland GmbH, priority 2000, dated 2003)

Test: Color coordinates (L*a*b*) of ink jet printed samples
Settings: illuminant D65; for L* value (material 2) / a* value (material 2) / b* value (material 2): printed ink on Ilfojet Photo Grade Clear Film UMCF4 (material 2); for L* value (material 1) / a* value (material 1) / b* value (material 1): printed ink on Ilfojet Photo Grade Glossy RC Paper UM2GP6 (material 1)

| Compound | L* value (material 2) | a* value (material 2) | b* value (material 2) | L* value (material 1) | a* value (material 1) | b* value (material 1) |
| --- | --- | --- | --- | --- | --- | --- |
| Nc1ccc2cc(S(=O)(=O)[O-])cc(O)c2c1N=Nc1cc(NC(=O)CCCC(=O)[O-])ccc1S(=O)(=O)[O-].[Na+].[Na+].[Na+] [Compound 121] | 52.9 | 76.5 | 24.5 | 47.3 | 71.0 | 31.6 |
| Cc1cc(N=Nc2c(N)ccc3cc(S(=O)(=O)[O-])cc(O)c23)c(S(=O)(=O)[O-])cc1NC(=O)CCC(=O)[O-].[Na+].[Na+].[Na+] [Compound 102] | 49.1 | 80.7 | 10.2 | 44.9 | 73.3 | 17.9 |
| Nc1ccc2cc(S(=O)(=O)[O-])cc(O)c2c1N=Nc1ccc(NC(=O)COCC(=O)[O-])cc1S(=O)(=O)[O-].[Na+].[Na+].[Na+] [Compound 104] | 48.4 | 83.2 | 2.1 | 46.6 | 74.0 | 9.6 |
| Cc1cc(N=Nc2c(N)ccc3cc(S(=O)(=O)[O-])cc(O)c23)c(S(=O)(=O)[O-])cc1NC(=O)CCCC(=O)[O-].[Na+].[Na+].[Na+] [Compound 103] | 50.1 | 80.2 | 6.9 | 46.5 | 72.4 | 15.9 |
| CNc1ccc2cc(S(=O)(=O)[O-])cc(O)c2c1N=Nc1ccc(NC(=O)C=CC(=O)[O-])cc1S(=O)(=O)[O-].[Na+].[Na+].[Na+] [Compound 112] | 53.3 | 79.9 | 12.7 | 48.6 | 74.7 | 24.3 |
| Nc1ccc2cc(S(=O)(=O)[O-])cc(O)c2c1N=Nc1cc(NC(=O)CCC(=O)[O-])ccc1S(=O)(=O)[O-].[Na+].[Na+].[Na+] [Compound 120] | 51.7 | 75.3 | 26.8 | 46.5 | 69.5 | 31.2 |
| Acid Red 37 [reference compound] | 48.4 | 81.4 | 6.4 | 44.7 | 74.5 | 16.5 |
| Nc1ccc2cc(S(=O)(=O)[O-])cc(O)c2c1N=Nc1ccc(NC(=O)CCCC(=O)[O-])cc1S(=O)(=O)[O-].[Na+].[Na+].[Na+] [Compound 101] | 49.5 | 83.0 | −0.5 | 45.7 | 75.8 | 12.0 |
| Nc1ccc2cc(S(=O)(=O)[O-])cc(O)c2c1N=Nc1ccc(Nc2nc(NCCS(=O)(=O)[O-])nc(NCCS(=O)(=O)[O-])n2)cc1S(=O)(=O)[O-].[Na+].[Na+].[Na+].[Na+] [II, reference compound] | 44.5 | 84.7 | −13.0 | 42.0 | 75.6 | −1.2 |
| Nc1ccc2cc(S(=O)(=O)[O-])cc(O)c2c1N=Nc1ccc(NC(=O)CCC(=O)[O-])cc1S(=O)(=O)[O-].[Na+].[Na+].[Na+] [Compound 100] | 49.6 | 81.8 | 1.2 | 45.4 | 75.2 | 12.7 |
